Assay results taken from paper PMC4402694.
Numbering of substitutions follows the chain as printed. These are yes or no findings as the source states them, for the method shown. For some assays here: In cells and extracts the contact can be indirect. For some assays here: Tags and fused reporters may be left off the sequences shown. Some results given as binding are weak or reduced against the parent protein; the word gives no strength. Each block holds one binder with its values, some of them ahead of it.

Legend:
[1] = molecular target: T1, Enp1-TAP (yeast (S. cerevisiae)) (UniProt P38333); assay: tandem affinity purification (TAP) with Western blot; Enp1-TAP isolated by TAP from SLX9 or slx9-1 yeast cells; calmodulin eluates on 4-12% gradient gel, silver staining or Western
T1 sequence: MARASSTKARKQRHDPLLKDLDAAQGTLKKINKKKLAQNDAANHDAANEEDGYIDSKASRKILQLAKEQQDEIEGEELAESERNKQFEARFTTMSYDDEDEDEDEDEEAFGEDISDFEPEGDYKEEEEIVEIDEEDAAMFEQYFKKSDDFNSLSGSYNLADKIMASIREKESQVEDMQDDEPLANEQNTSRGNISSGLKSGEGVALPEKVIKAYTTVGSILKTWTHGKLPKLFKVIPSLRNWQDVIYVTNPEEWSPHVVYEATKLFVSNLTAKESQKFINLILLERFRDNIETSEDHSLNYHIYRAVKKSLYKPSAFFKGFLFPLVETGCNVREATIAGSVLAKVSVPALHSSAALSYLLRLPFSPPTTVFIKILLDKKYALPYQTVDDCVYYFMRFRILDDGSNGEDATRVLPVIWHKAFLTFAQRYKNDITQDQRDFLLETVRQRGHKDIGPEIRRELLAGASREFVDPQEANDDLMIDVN

[2] = molecular target: T2, GST-Ltv1 (yeast (S. cerevisiae)), P34078; assay: pull-down; GST fusion immobilised on GSH-Sepharose in PBSKMT, incubated with one purified protein (2 µM His6-Ran variant, or 0.5 µM Slx9 or Slx9-1) for 1 hr at 4°C, competing E. coli lysates present; Coomassie or Western; both purified; conditions: remark: other sources report otherwise
T2 chain: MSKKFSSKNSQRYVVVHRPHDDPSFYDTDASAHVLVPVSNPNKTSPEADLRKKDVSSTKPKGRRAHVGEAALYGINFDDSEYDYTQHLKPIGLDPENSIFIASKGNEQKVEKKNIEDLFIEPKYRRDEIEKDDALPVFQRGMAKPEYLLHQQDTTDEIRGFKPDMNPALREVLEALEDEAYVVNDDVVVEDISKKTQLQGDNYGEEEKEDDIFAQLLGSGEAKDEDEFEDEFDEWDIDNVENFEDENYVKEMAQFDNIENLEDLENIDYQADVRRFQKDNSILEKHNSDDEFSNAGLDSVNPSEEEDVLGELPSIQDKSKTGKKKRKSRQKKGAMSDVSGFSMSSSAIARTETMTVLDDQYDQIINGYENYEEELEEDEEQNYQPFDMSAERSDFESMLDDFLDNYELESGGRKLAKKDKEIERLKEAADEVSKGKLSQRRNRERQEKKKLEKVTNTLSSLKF

[3] = molecular target: T3, GST-Slx9 (yeast (S. cerevisiae)) (UniProt P53251); assay: pull-down; GST-Slx9 immobilised on GSH-Sepharose, incubated with lysate containing His6-Nmd3 or His6-Rio2; Western; only the target purified
T3 sequence: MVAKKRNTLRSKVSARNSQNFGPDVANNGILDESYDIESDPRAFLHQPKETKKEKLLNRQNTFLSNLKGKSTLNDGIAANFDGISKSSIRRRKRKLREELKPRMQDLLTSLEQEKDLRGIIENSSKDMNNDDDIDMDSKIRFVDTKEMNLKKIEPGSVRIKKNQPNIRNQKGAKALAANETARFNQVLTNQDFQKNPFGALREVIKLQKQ

- binding [1]: binds
B1: Slx9 (in SLX9 yeast cells) (protein, UniProt P53251 1-210)
chain: T3 sequence

- binding [1]: binds
B2: Slx9-1 (in slx9-1 yeast cells) (protein, UniProt P53251 1-210)
chain: T3 sequence with L108P

- binding [2]: no binding (tested: 0.5 µM)
B3: Slx9 (purified, GB1-His removed), P53251 1-210 (protein)
chain: T3 sequence

- binding [3]: no binding
B4: His6-Nmd3 (protein, UniProt P38861 1-518)
chain: MEFTPIDPHQHQNAATLLCCNCGTPIDGSTGLVMCYDCIKLTVDITQGIPREANISFCRNCERFLQPPGQWIRAELESRELLAICLRRLKGLTKVRLVDASFIWTEPHSRRIRIKLTVQGEAMTNTIIQQTFEVEYIVIAMQCPDCARSYTTNTWRATVQIRQKVPHKRTFLFLEQLILKHNAHVDTISISEAKDGLDFFYAQKNHAVKMIDFLNAVVPIKHKKSEELISQDTHTGASTYKFSYSVEIVPICKDDLVVLPKKLAKSMGNISQFVLCSKISNTVQFMDPTTLQTADLSPSVYWRAPFNALADVTQLVEFIVLDVDSTGISRGNRVLADITVARTSDLGVNDQVYYVRSHLGGICHAGDSVMGYFIANSNYNSDLFDGLNIDYVPDVVLVKKLYQRKSKKSRHWKLKRMAKEHKDIDASLDYNSRAQKQEMERAEKDYELFLQELEEDAELRQSVNLYKNREANVPPEEHEMDEDEDEDAPQINIDELLDELDEMTLEDGVENTPVESQQ

- binding [1]: binds
B5: Ltv1 (endogenous) (protein, UniProt P34078 1-463)
chain: T2 chain
